# Assay results from the supplement of paper PMC8728848.
# The other results are listed elsewhere or left out.
# B1: BSR4 (Toxoplasma gondii), Q95NL6 (protein)
# chain: MVMMGSMQQRRGGLRSNARQLLAVCMSGVVFFSSGQAVADNLLEGLLHRTLQQQVEVTSRLTVAGSDAKCDFFTPATQDSPPVSGSLTLSKGRMTATFECSATQALSISTIPTNIEQNVCDPKKTTNGTVCQFGANGSAGTEVTLKDLLETDRIVNWKVNEQREESNKSQKWSLELHNEDLPLTDKAFVVGCQATSAARGTESGKTAACKLTVNVEARASSLAENNVVTCAYGKGSNPNPVEVEMSTEKNTLTINCGSDGSLQPTTYAEEYCVADSKDVNRCSTTRFVEIFPKFLKSWWVTETQKRTSATLTIPQTDLPEADQQFLVGCVPKKTAPEDPKKDKESGTETGAPTSCTVLVTVKAASSASHASPTVQILAAASSAAA
# How the values were obtained:
# Test in all cases: glycan array binding signal (z-score within array); higher = stronger binding
# Conditions in all cases: glycan notation: IUPAC condensed, linker removed
# [1] = target: Neu5Ac(a2-8)Neu5Ac
# Method in brief: (§1)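 The binding signal is a Z-score computed within each array. Data were drawn from 3228 arrays in the Consortium for Functional Glycomics database, restricted to those with a known protein sequence. Scores were averaged over arrays of the same protein sequence at different concentrations or buffers, and over linkers, and negative values can be taken as non-binding.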
# [2] = target: Neu5Ac(a2-8)Neu5Ac(a2-3)Gal(b1-4)Glc
# Method in brief: as §1
# [3] = target: Neu5Ac(a2-8)Neu5Ac(a2-3)[GalNAc(b1-4)]Gal(b1-4)Glc
# Method in brief: as §1
# [4] = target: Neu5Ac(a2-8)Neu5Ac(a2-8)Neu5Ac
# Method in brief: as §1
# [5] = target: Neu5Ac(a2-8)Neu5Ac(a2-8)Neu5Ac(a2-3)Gal(b1-4)Glc
# Method in brief: as §1
# [6] = target: Neu5Ac(a2-8)Neu5Ac(a2-8)Neu5Ac(a2-3)[GalNAc(b1-4)]Gal(b1-4)Glc
# Method in brief: as §1
# [7] = target: Neu5Ac(a2-8)Neu5Ac(a2-8)Neu5Ac(a2-8)Neu5Ac(a2-3)[GalNAc(b1-4)]Gal(b1-4)Glc
# Method in brief: as §1
# [8] = target: Neu5Ac(b2-6)Gal(b1-4)GlcNAc
# Method in brief: as §1
# [9] = target: Neu5Ac(b2-6)GalNAc
# Method in brief: as §1
# [10] = target: Neu5Ac9Ac(a2-3)Gal(b1-3)GlcNAc
# Method in brief: as §1
# [11] = target: Neu5Ac9Ac(a2-3)Gal(b1-4)GlcNAc
# Method in brief: as §1
# [12] = target: Neu5Ac9Ac(a2-6)Gal(b1-4)GlcNAc
# Method in brief: as §1
# [13] = target: Neu5Gc(a2-3)Gal(b1-3)GlcNAc
# Method in brief: as §1
# [14] = target: Neu5Gc(a2-3)Gal(b1-3)[Fuc(a1-4)]GlcNAc
# Method in brief: as §1
# [15] = target: Neu5Gc(a2-3)Gal(b1-4)Glc
# Method in brief: as §1
# [16] = target: Neu5Gc(a2-3)Gal(b1-4)GlcNAc
# Method in brief: as §1
# [17] = target: Neu5Gc(a2-3)Gal(b1-4)[Fuc(a1-3)]GlcNAc
# Method in brief: as §1
# [18] = target: Neu5Gc(a2-6)Gal(b1-4)GlcNAc
# Method in brief: as §1
# [19] = target: Neu5Gc(a2-6)GalNAc
# Method in brief: as §1
# [20] = target: Neu5Gc(b2-6)Gal(b1-4)GlcNAc
# Method in brief: as §1
binder,measurement,setting,value
B1,glycan array binding signal (z-score),[1],-0.055
same,glycan array binding signal (z-score),[2],-0.515
same,glycan array binding signal (z-score),[3],-0.035
same,glycan array binding signal (z-score),[4],-0.257
same,glycan array binding signal (z-score),[5],-0.05
same,glycan array binding signal (z-score),[6],-0.575
same,glycan array binding signal (z-score),[7],-0.454
same,glycan array binding signal (z-score),[8],-0.382
same,glycan array binding signal (z-score),[9],-0.144
same,glycan array binding signal (z-score),[10],-0.61
same,glycan array binding signal (z-score),[11],0.407
same,glycan array binding signal (z-score),[12],0.042
same,glycan array binding signal (z-score),[13],0.36
same,glycan array binding signal (z-score),[14],0.141
same,glycan array binding signal (z-score),[15],0.227
same,glycan array binding signal (z-score),[16],-0.102
same,glycan array binding signal (z-score),[17],0.193
same,glycan array binding signal (z-score),[18],0.037
same,glycan array binding signal (z-score),[19],0.112
same,glycan array binding signal (z-score),[20],0.241

# A second format for some results above.
binder | measurement | setting | value
B1 | glycan array binding signal (z-score) | [12] | 0.042
same | glycan array binding signal (z-score) | [13] | 0.36
same | glycan array binding signal (z-score) | [14] | 0.141
same | glycan array binding signal (z-score) | [15] | 0.227
same | glycan array binding signal (z-score) | [16] | -0.102
